# Measured values from the supplement of paper PMC12067093, “Discovery and optimisation of a covalent ligand for TRIM25 and its application to targeted protein ubiquitination” (Chemical Science, 2025).
# Some of the results follow.
# Compound: CC1Cc2ccccc2N1C(=O)C1CCCN(C1)C(=O)CCl (mixture of isomers) [TRIM25 ligand 11 (diastereomer mixture)]
# Experiment: probe-labelled cysteine peptide fold change vs DMSO (competition) (log2 fold change); higher = less target engagement (more negative = stronger competition)
# Settings: THP-1, incubation time: 4 h
# 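Further: competitive chemoproteomic profiling in live THP-1 cells with an iodoacetamide desthiobiotin (IA-DTB) probe, comparing probe-labelled peptide intensities in compound-treated cells against DMSO-treated controls.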
Target,probe-labelled cysteine peptide fold change (10 µM),probe-labelled cysteine peptide fold change (50 µM)
RAP1A_P62834_141_QWCNCAFLESSAK (UniProt P62834),-0.0388,-0.00549
RAVER1_Q8IY67_224_CLCVDRLPPGFNDVDALCR (UniProt Q8IY67),-0.267,-0.102
RANBP6_O60518_118_LCDIFAVLAR (UniProt O60518),0.152,0.0242
RCC1L_Q96I51_401_CGLSHFAALTNK (UniProt Q96I51),0.0578,0.0297
RBPJ_Q06330_397_CGESMLCVVPDISAFR (UniProt Q06330),0.165,0.021
RB1CC1_Q8TDY2_839_CTAVEIR (UniProt Q8TDY2),0.033,-0.123
RBBP7_Q16576_97_VHIPNDDAQFDASHCDSDKGEFGGFGSVTGK (UniProt Q16576),0.0189,0.134
RCHY1_Q96PM5_172_TCYEEMLK (UniProt Q96PM5),-0.0376,-0.0114
RANBP2_P49792_1424_EGHWDCSICLVR (UniProt P49792),0.109,0.0853
RBM6_P78332_1057_GGCVQQATGWR (UniProt P78332),-0.0787,-0.056
RAI1_Q7Z5J4_1729_VRPEGTCEEASLPLER (UniProt Q7Z5J4),-0.151,-0.188
RANBP10_Q6VN20_243_VQGTVHCFPISAR (UniProt Q6VN20),0.273,0.368
RASGRP4_Q8TDF6_14_SHQECTGK (UniProt Q8TDF6),-0.0302,-0.022
RANBP2_P49792_1749_CIACQCPSK (UniProt P49792),-0.032,0.157
RANBP2_P49792_3032_EVADCFK (UniProt P49792),0.134,0.109
RARS_P54136_369_IVFVPGCSIPLTIVK (UniProt P54136),-0.0819,0.0673
RASSF2_P50749_90_IRPPPSSSSWHSGCNLGAQGTTLKPLTVPK (UniProt P50749),0.0411,-0.437
RANBP2_P49792_2982_VCANHVITK (UniProt P49792),0.0898,0.0664
RANBP9_Q96S59_719_SGIGSCAFATVEDYLH (UniProt Q96S59),-0.386,-0.319
RASGRP2_Q7LDG7_512_MGFVHNFQESNSLRPVACR (UniProt Q7LDG7),-0.214,-0.0958

Target,probe-labelled cysteine peptide fold change (10 µM),probe-labelled cysteine peptide fold change (50 µM)
RAE1_P78406_217_CVAIFK (UniProt P78406),-0.0991,-0.0606
RAI1_Q7Z5J4_1516_MEELGLASQPPEGRPCQPQTR (UniProt Q7Z5J4),-0.141,-0.248
RASAL2_Q9UJF2-2_95_KYCILTDSQLVLLNK (UniProt Q9UJF2),-0.312,0.0501
RCCD1_A6NED2_42_AGVDICR (UniProt A6NED2),0.0261,0.193
RBM6_P78332_960_LACLLCR (UniProt P78332),-0.139,0.0569
RANBP2_P49792_1485_EGQWDCSACLVQNEGSSTK (UniProt P49792),0.0323,0.187
RASA1_P20936_261_FSSLSDLIGYYSHVSCLLK (UniProt P20936),0.0868,-0.0482
RBBP7_Q16576_166_HPAKPDPSGECNPDLR (UniProt Q16576),-0.0467,-0.136
RCC2_Q9P258_280_GNLYSFGCPEYGQLGHNSDGK (UniProt Q9P258),0.288,-0.207
RBM15B_Q8NDT2_732_NSCFPTSMHILEGDQGVISSLLK (UniProt Q8NDT2),0.297,0.0112
RCC1L_Q96I51_114_ISSAACGYGFTLLSSK (UniProt Q96I51),0.118,0.152
RBKS_Q9H477_151_VMVCQLEITPATSLEALTMAR (UniProt Q9H477),-0.00827,-0.305
RADIL_Q96JH8_298_PSISLSAPDILPLHCTIR (UniProt Q96JH8),0.109,0.111
RALBP1_Q15311_411_RQEFLLNCLHR (UniProt Q15311),-0.116,-0.0212
RANBP9_Q96S59_678_EPVCSALNSAILETHNLPK (UniProt Q96S59),0.0853,0.0342
RANBP2_P49792_1549_KEGQWDCSSCLVR (UniProt P49792),-0.0222,0.139
RASSF4_Q9H2L5_5_EDCLPSSHVPISDSK (UniProt Q9H2L5),0.0963,-0.308
RASGRP2_Q7LDG7_76_TCHLVR (UniProt Q7LDG7),0.0131,0.0133
RBM4_Q9BWF3_89_LHVGNISPTCTNK (UniProt Q9BWF3),0.0226,-0.0495
